Laboratory results taken from patent US20160122788A1.
Results are given in words; binding and its absence hold for the method and conditions named. Binding seen in cells or lysates may run through a third protein. Some entries that bind do so weakly or less than the wild type. Where a sequence is shown, tags or fusion partners need not be part of it.

The chains behind the UniProt entries cited, without tags or fusion partners.
UniProt P0AGE9: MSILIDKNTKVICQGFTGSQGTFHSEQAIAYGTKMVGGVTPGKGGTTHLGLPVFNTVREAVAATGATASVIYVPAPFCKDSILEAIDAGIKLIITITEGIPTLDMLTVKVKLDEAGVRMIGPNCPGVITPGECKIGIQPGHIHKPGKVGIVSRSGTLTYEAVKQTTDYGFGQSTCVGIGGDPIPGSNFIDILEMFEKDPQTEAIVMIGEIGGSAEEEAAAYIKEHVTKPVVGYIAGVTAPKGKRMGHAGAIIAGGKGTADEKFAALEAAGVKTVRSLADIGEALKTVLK

Molecular target: Strep-tagged α-subunit (sucD) of succinyl-CoA synthetase of Escherichia coli (Escherichia coli (str. K-12 substr. MG1655)) (UniProt P0AGE9)
Assay: co-purification by Strep-tag affinity chromatography, shown by SDS-PAGE

B1: β-subunit (sucC) of succinyl-CoA synthetase of Escherichia coli, without Strep-tag (enzyme)
chain: MNLHEYQAKQLFARYGLPAPVGYACTTPREAEEAASKIGAGPWVVKCQVHAGGRGKAGGVKVVNSKEDIRAFAENWLGKRLVTYQTDANGQPVNQILVEAATDIAKELYLGAVVDRSSRRVVFMASTEGGVEIEKVAEETPHLIHKVALDPLTGPMPYQGRELAFKLGLEGKLVQQFTKIFMGLATIFLERDLALIEINPLVITKQGDLICLDGKLGADGNALFRQPDLREMRDQSQEDPREAQAAQWELNYVALDGNIGCMVNGAGLAMGTMDIVKLHGGEPANFLDVGGGATKERVTEAFKIILSDDKVKAVLVNIFGGIVRCDLIADGIIGAVAEVGVNVPVVVRLEGNNAELGAKKLADSGLNIIAAKGLTDAAQQVVAAVEGK
  binding: binds
